Assay results from the supplement of paper PMC8426693.
Some of the results follow.

Assays:
Experiment in all cases: NMR binding call after quantification (hit when 2 of 3 NMR criteria are met) (binary (1 = binding, 0 = not binding)); higher = binding
Conditions in all cases: RNA concentration 10 µM; fragment concentration 200 µM; 293 K
SARS-CoV-2 3'-UTR RNA = tested on: SARS-CoV-2 3'-UTR RNA
SARS-CoV-2 3_SL1 RNA = tested on: SARS-CoV-2 3_SL1 RNA
SARS-CoV-2 3_SL1+2 RNA = tested on: SARS-CoV-2 3_SL1+2 RNA
SARS-CoV-2 3_SL2 RNA = tested on: SARS-CoV-2 3_SL2 RNA
SARS-CoV-2 3_SL3base RNA = tested on: SARS-CoV-2 3_SL3base RNA
SARS-CoV-2 3_s2m RNA = tested on: SARS-CoV-2 3_s2m RNA

SMILES	NMR binding call (SARS-CoV-2 3'-UTR RNA)	NMR binding call (SARS-CoV-2 3_SL1 RNA)	NMR binding call (SARS-CoV-2 3_SL1+2 RNA)	NMR binding call (SARS-CoV-2 3_SL2 RNA)	NMR binding call (SARS-CoV-2 3_SL3base RNA)	NMR binding call (SARS-CoV-2 3_s2m RNA)
CC(O)CNC1CCCCC1 (stereo not drawn)	0	0	0	0	0	0
Cc1nccn1CC(C)O (stereo not drawn)	0	0	0	0	0	0
CCOc1ccc(C(N)=O)cn1	0	0	0	0	0	0
Oc1ncc(NCc2ccccc2)c(O)n1	0	0	0	0	0	0
CCn1c(NC(C)=O)nc2ccccc21	0	0	0	0	0	0
CCOc1c(F)cccc1C(=O)N(C)C	0	0	0	0	0	0
CN(C)C(=O)N1CCN(C(=O)N(C)C)CC1	0	0	0	0	0	0
Cc1nn(Cc2c(C)noc2C)c(=O)s1	0	0	0	0	0	0
Cc1cc(C)nc(Nc2ccccc2)n1	0	0	0	0	0	0
O=C(C1CC1)N1CCN(c2ccc(F)cc2)CC1	0	0	0	0	0	0
CCC(=O)NCc1nnc2n1CCCC2	0	0	0	0	0	0
Cc1csc(NC(=O)C2CCOCC2)n1	0	0	0	0	0	0
CCNc1ccc(C#N)cn1	0	0	0	0	0	0
CC1COCCN1Cc1ccccc1F (stereo not drawn)	0	0	0	0	0	0
CNCc1cnn(-c2ccccc2)c1	0	0	0	0	0	0
COCC(=O)NCc1nc2ccccc2[nH]1	0	0	0	0	0	0
CC(=O)N1CCOC(CO)C1 (stereo not drawn)	0	0	0	0	0	0
COc1ccc(NC(=O)Nc2cccs2)cn1	1	0	0	0	0	0
CC(=O)NCc1cncs1	0	0	0	0	0	0
CS(=O)(=O)N1CCCC1CN (stereo not drawn)	0	0	0	0	0	0

SMILES	NMR binding call (SARS-CoV-2 3'-UTR RNA)	NMR binding call (SARS-CoV-2 3_SL1 RNA)	NMR binding call (SARS-CoV-2 3_SL1+2 RNA)	NMR binding call (SARS-CoV-2 3_SL2 RNA)	NMR binding call (SARS-CoV-2 3_SL3base RNA)	NMR binding call (SARS-CoV-2 3_s2m RNA)
COc1ccc(C(=O)C2CCNCC2)cc1	0	0	0	0	0	0
CCOC(=O)CN1CCCCC1	0	0	0	0	0	0
CC(C)(C)NC(=O)N1CCC(C(N)=O)CC1	0	0	0	0	0	0
CNC(=O)CCC1CCCCC1	0	0	0	0	0	0
CC1CN(C(=O)Cn2cccn2)CCO1 (stereo not drawn)	0	0	0	0	0	0
CCNc1ncccc1C	0	0	0	0	0	0
COc1ccc(NCc2ccc(F)cc2)cc1	0	0	0	0	0	0
CN(C1CCCCCC1)S(C)(=O)=O	0	0	0	0	0	0
CC(=O)NCCc1ccccc1C	0	0	0	0	0	0
CCc1nc(C2CCCN2)no1 (stereo not drawn)	0	0	0	0	0	0
CC(C)(C)C1CCN(C(=O)c2ccccc2)CC1	0	0	0	0	0	0
COC(=O)Nc1cc(C)n(-c2ccccc2)n1	0	0	0	0	0	0
c1ccc(Nc2nncs2)cc1	0	0	0	0	0	0
CC(C)Nc1cccnc1	0	0	0	0	0	0
Cn1nnc(NC(=O)c2ccc(Cl)cc2)n1	0	0	0	0	0	0
O=C(COC(F)F)N1CCCC2(CC2)C1	0	0	0	0	0	0
c1ccc(CCNc2nc3ccccc3[nH]2)cc1	1	0	0	0	0	0
Cc1noc(C)c1CC(C)C(=O)N(C)C (stereo not drawn)	0	0	0	0	0	0
Cc1ccc(CN2CCS(=O)(=O)CC2)cc1	0	0	0	0	0	0
Cn1nnc(NC(=O)c2ccc(F)cc2)n1	0	0	0	0	0	0

SMILES	NMR binding call (SARS-CoV-2 3'-UTR RNA)	NMR binding call (SARS-CoV-2 3_SL1 RNA)	NMR binding call (SARS-CoV-2 3_SL1+2 RNA)	NMR binding call (SARS-CoV-2 3_SL2 RNA)	NMR binding call (SARS-CoV-2 3_SL3base RNA)	NMR binding call (SARS-CoV-2 3_s2m RNA)
CCOC(=O)c1cc(-c2ccc(F)cc2)no1	0	0	0	0	0	0
O=C(NCc1ccc(F)cc1)Nc1ccccc1	0	0	0	0	0	0
c1cc(CN2CCNCC2)no1	0	0	0	0	0	0
CS(=O)(=O)NC1CCCC1	0	0	0	0	0	0
Cc1ccc(N2CCN(C(N)=O)CC2)cc1	0	0	0	0	0	0
CC(=O)N1CCC(N)CC1	0	0	0	0	0	0
CC(C)c1ccc(C(=O)Nc2nncs2)cc1	1	0	0	0	0	0
CC(=O)NCC1(c2ccccc2)CCOCC1	0	0	0	0	0	0
CNC1CCN(c2ccccc2F)C1=O.Cl (stereo not drawn)	0	0	0	0	0	0
COc1cc(NC(C)=O)c(OC)cc1Cl	0	0	0	0	0	0
C1CC(Cc2nc(C3CC3)no2)CCN1	0	0	0	0	0	0
CC1(C)CN(c2ncccc2F)CC1O (stereo not drawn)	0	0	0	0	0	0
CC1CCN(C(=O)CC(F)(F)F)CC1	0	0	0	0	0	0
N#CCCN1CCOCC1	0	0	0	0	0	0
CNS(=O)(=O)Cc1cc(C)on1	0	0	0	0	0	0
CCOC(=O)c1sc(-c2cnccn2)nc1C	0	0	0	0	0	0
CC(=O)N1CCCC(O)(C(=O)O)C1 (stereo not drawn)	0	0	0	0	0	0
CC(=O)NC(C)(C(=O)O)C1CC1 (stereo not drawn)	0	0	0	0	0	0

For reference, part of the list above:
SMILES	NMR binding call (SARS-CoV-2 3'-UTR RNA)	NMR binding call (SARS-CoV-2 3_SL1 RNA)	NMR binding call (SARS-CoV-2 3_SL1+2 RNA)	NMR binding call (SARS-CoV-2 3_SL2 RNA)	NMR binding call (SARS-CoV-2 3_SL3base RNA)	NMR binding call (SARS-CoV-2 3_s2m RNA)
CC(C)Nc1cccnc1	0	0	0	0	0	0
Cn1nnc(NC(=O)c2ccc(Cl)cc2)n1	0	0	0	0	0	0
O=C(COC(F)F)N1CCCC2(CC2)C1	0	0	0	0	0	0
c1ccc(CCNc2nc3ccccc3[nH]2)cc1	1	0	0	0	0	0
Cc1noc(C)c1CC(C)C(=O)N(C)C (stereo not drawn)	0	0	0	0	0	0
Cc1ccc(CN2CCS(=O)(=O)CC2)cc1	0	0	0	0	0	0
Cn1nnc(NC(=O)c2ccc(F)cc2)n1	0	0	0	0	0	0
CCOC(=O)c1cc(-c2ccc(F)cc2)no1	0	0	0	0	0	0
O=C(NCc1ccc(F)cc1)Nc1ccccc1	0	0	0	0	0	0
c1cc(CN2CCNCC2)no1	0	0	0	0	0	0
CS(=O)(=O)NC1CCCC1	0	0	0	0	0	0
Cc1ccc(N2CCN(C(N)=O)CC2)cc1	0	0	0	0	0	0
CC(=O)N1CCC(N)CC1	0	0	0	0	0	0
CC(C)c1ccc(C(=O)Nc2nncs2)cc1	1	0	0	0	0	0
CC(=O)NCC1(c2ccccc2)CCOCC1	0	0	0	0	0	0
CNC1CCN(c2ccccc2F)C1=O.Cl (stereo not drawn)	0	0	0	0	0	0
